At least one compound was matched to its structure with a doubt left.
What was measured:
foam cell spheroids = experiment: Oil Red O staining of lipid in foam cell spheroids; assay type: cell-based, human; settings: Dex alone
[1] = Encapsulation efficiency of drug in the microparticle shell; assay type: physicochemical; settings: drug incorporated into the microparticle as percentage of drug dissolved in the organic phase

Row | Compound | lipid accumulation (Oil Red O) (foam cell spheroids) | encapsulation efficiency [1]
1 | C[C@@H]1C[C@H]2[C@@H]3CCC4=CC(=O)C=C[C@]4(C)[C@@]3(F)[C@@H](O)C[C@]2(C)[C@@]1(O)C(=O)CO [Dex, dexamethasone] | oil droplets near the core of the foam cell spheroid were still present | 
2 | CO[C@H]1C[C@@H]2CC[C@@H](C)[C@@](O)(O2)C(=O)C(=O)N2CCCC[C@H]2C(=O)O[C@H]([C@H](C)C[C@@H]2CC[C@@H](O)[C@H](OC)C2)CC(=O)[C@H](C)/C=C(\C)[C@@H](O)[C@@H](OC)C(=O)[C@H](C)C[C@H](C)/C=C/C=C/C=C/1C [sirolimus] |  | around 40%

Source: US20230248652A1, “BIODEGRADEABLE MULTI-CAVITY MICROPARTICLES AND THEIR USE IN TREATMENT” (OXFORD UNIVERSITY INNOVATION LIMITED, priority 2020, published 2023)
